A short description of the assay: IkB Signaling. To be noted: ABC-DLBCL IkBa-CBG/CBR dual luciferase ratio (green luciferase fused to IkBa over red control in OCI-Ly3 lymphoma cells), 4 h. The essentials: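 In this assay, an IκBα–CBG68 fusion accumulates when IKK-driven degradation is blocked; native CBR normalizes for cell number. OCI-Ly3 cells were treated 4 h with compound and doxycycline, then green and red light read after Chroma-Glo addition.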
Where [1] appears, read: measured here: control luc red channel unless noted.

Some of the results follow. The main result of the screen is listed elsewhere. These columns were measured beside it and carry no call. Compounds called inactive in the main read-out are mostly missing here. Words in brackets tell the shape of the fitted curve; partial curves, single points and poor fits give uncertain potencies.

Broadly, the AC50 is the concentration at which the activity in the assay is half-maximal. Regarding `CCc1cccc(C)c1Nc1c(-c2ccc(N(C)C)cc2)nc2cnccn12`, the AC50 under setting [1] is 20 µM [falling, partial curve].
For the compound `Cc1ccc(-n2nc(C)c3c(C)c(CCC(=O)NCc4ccc(Cl)cc4)c(C)nc32)cc1`, the AC50 under setting [1] was 10 µM [falling, partial curve].
For `Cc1cc(NC(=O)c2cc(-c3ccccc3)on2)n(-c2ccccc2)n1`, the AC50 under setting [1] is 15.8 µM [falling, partial curve].
On to `CCc1ccc(C(=O)c2cn(CC(=O)Nc3cc(OC)cc(OC)c3)c3ccc(CC)cc3c2=O)cc1`, for which, under setting [1], the AC50 was 39.8 µM [falling, partial curve].
For `COc1ccc(-c2cc(C(=O)Oc3ccc(C#N)cc3)no2)cc1`, the AC50 under setting [1] is 0.00631 µM [rising, full curve, poor fit].
The same measure, in the same setting: the figure for `Cc1ccsc1-c1nc(CSCC(=O)NCc2ccc3c(c2)OCO3)c(C)o1` is 25.1 µM [falling, single point].
Take `O=S1(=O)c2ccccc2N(Cc2ccc(F)cc2)c2ccccc21`: the AC50 under setting [1] was 12.6 µM [falling, partial curve].
With `O=C(Nc1cc(Cl)cc(Cl)c1)c1cc(S(=O)(=O)N2CCc3ccccc3C2)ccc1F`, the AC50 under setting [1] is 20 µM [falling, partial curve].
The same measure, in the same setting: for `Cn1cccc1-c1nc2ccc(NC(=O)c3ccco3)cc2[nH]1` the value was 20 µM [falling, partial curve]; for `CCOC(=O)c1cccc(NC(=O)C2CCCN(c3nnc(C)c4c(C)n(-c5ccccc5)nc34)C2)c1` (stereo not given), 12.6 µM [falling, partial curve]; for `COc1ccc(OC)c(C2C(C(=O)Nc3ccccc3OC)=C(C)Nc3c(C(=O)Nc4ccc(F)cc4)cnn32)c1` (stereo not given), 15.8 µM [falling, partial curve].
The same measure, in the same setting: for `CC(Nc1ccc(Br)cn1)c1cc(Cl)ccc1O` (stereo not given) the value was 25.1 µM [falling, partial curve].
On the same count and under the same terms, the figure for `O=C(CSc1nnc(-c2cnccn2)n1Cc1ccco1)c1ccc2ccccc2c1` is 15.8 µM [falling, partial curve]; for `COc1ccc(NS(=O)(=O)c2ccc3oc(Nc4ccc5c(c4)OCCO5)nc3c2)cc1` it is 12.6 µM [falling, partial curve].
As to `O=C(CSC1=NCCN1)NC12CC3CC(CC(C3)C1)C2`, the half-maximal activity concentration (AC50) under setting [1] is 39.8 µM [rising, single point] [measured here: IkB-luc green channel].
Still for that read-out and setting: for `CCOC(=O)c1ccc(NS(=O)(=O)c2cc(Br)cc3c2N(C(C)=O)C(C)C3)cc1` (stereo not given) the value was 6.31 µM [falling, partial curve]; for `CCc1nnc(NC(=O)C2Cc3ccccc3CN2S(=O)(=O)c2cccs2)s1` (stereo not given), 39.8 µM [falling, single point]; for `COc1ccc(CNC(=O)c2cc(-c3ccc(C)c(C)c3)n[nH]2)cc1`, 25.1 µM [falling, partial curve].
On the same count and under the same terms, the figure for `CCN(C(=O)c1cc(S(=O)(=O)N2CCc3ccccc32)cn1C)c1cccc(C)c1` is 10 µM [falling, partial curve].
`O=C(Nc1ccc(-c2nc3cccnc3s2)cc1)c1ccco1`: the half-maximal activity concentration (AC50) was 39.8 µM [rising, single point] (measured here: IkB-luc green channel) and 10 µM [falling, partial curve] (measured here: control luc red channel).
For `Cc1ccc2c(=O)c(C(=O)c3ccc(F)cc3)cn(CC(=O)NCc3ccccc3Cl)c2n1`, under setting [1], the AC50 was 1 µM [falling, full curve, poor fit].
As to `Cc1ccc(Cl)cc1N1CCN(C(=O)c2cccn2-c2nnc(N3CCCC3)s2)CC1`, under setting [1], the AC50 was 31.6 µM [falling, single point].
For `CC(C)(C)OC(=O)N1CCC(c2c(C(=O)NCc3ccc4c(c3)OCO4)cnn2-c2ccccc2Cl)CC1`, under setting [1], the AC50 is 15.8 µM [falling, partial curve].
As for `COc1ccc(C(=O)Nc2nnc(S(=O)(=O)N(CC(C)C)c3ccccc3)s2)cc1`, the AC50 under setting [1] is 0.631 µM [rising, full curve].
The same measure, in the same setting: the figure for `CCc1ccc2oc(-c3cc(N)cc(C)c3O)nc2c1` is 1.26 µM [falling, full curve]; for `Cc1ccc(Cn2c(C(=O)O)c(CNCc3cccs3)c3ccc(C)cc32)cc1` it is 15.8 µM [falling, partial curve].
The same measure, in the same setting: for `COc1cc(-c2nnn(CC(=O)NC3CCS(=O)(=O)C3)n2)ccc1OCc1ccccc1` (stereo not given) the value was 0.398 µM [falling, partial curve]; for `CCOC(=O)c1c(NC(=O)c2ccc(S(=O)(=O)N3CCCC(C)C3)cc2)sc2c1CCN(C(C)C)C2` (stereo not given), 31.6 µM [falling, partial curve]; for `Cc1cc(C)cc(NC(=O)C(=O)NC(C)c2ccccc2)c1` (stereo not given), 20 µM [falling, single point].
The same measure, in the same setting: for `CC(C)c1ccc2oc(-c3cccc(NC(=O)c4ccc5c(c4)OCCO5)c3)nc2c1` the value was 0.316 µM [falling, full curve].
Turning to `Cc1ccc(-n2c(SCC(=O)Nc3cccc(F)c3)nc3c(oc4ccccc43)c2=O)cc1C`, under setting [1], the AC50 was 10 µM [falling, partial curve].
Still for that read-out and setting: for `O=C(O)C(F)(F)S(=O)(=O)O` the value was 39.8 µM [rising, single point] [measured here: IkB-luc green channel].
Same read-out and setting: for `Cc1ccc2oc3c(c(=O)c2c1)C(c1cccc(O)c1)N(Cc1ccccc1Cl)C3=O` (stereo not given) the value was 20 µM [falling, partial curve]; for `CC(C)Sc1ncc(Cl)c(C(=O)N(Cc2ccc(F)cc2)C2CCS(=O)(=O)C2)n1` (stereo not given), 12.6 µM [falling, partial curve].
Still for that read-out and setting: for `CCOC(=O)C(C(C)=O)c1c(Br)c(O)c(O)c2c(C(=O)c3ccc(C)cc3)coc12` (stereo not given) the value was 2 µM [falling, full curve]; for `CC1=C(C(=O)Nc2ccc(C)cc2)C(c2ccc(Cl)cc2)n2nnnc2N1` (stereo not given), 3.16 µM [falling, partial curve].
Regarding `Cc1ccc(NC(=O)CN2C(=O)C(C)(C)c3ccccc32)cc1`, under setting [1], the AC50 was 0.0316 µM [falling, full curve, poor fit].
Still for that read-out and setting: the figure for `COc1cccc(C2c3c(-c4ccccc4O)n[nH]c3C(=O)N2CCc2ccc(OC)c(OC)c2)c1` (stereo not given) is 20 µM [falling, single point]; for `Cc1ccc(Sc2c(C(=O)NCc3ccccc3C)[nH]c3ccccc23)cc1` it is 20 µM [falling, single point].
